Test results from the supplement of paper PMC10849652.
The other results are listed elsewhere or left out.

The chains behind the UniProt entries cited, without tags or fusion partners. Where a name states a change or a piece, a line headed by the entry shows the natural chain unless it says otherwise.
UniProt Q6NUS6: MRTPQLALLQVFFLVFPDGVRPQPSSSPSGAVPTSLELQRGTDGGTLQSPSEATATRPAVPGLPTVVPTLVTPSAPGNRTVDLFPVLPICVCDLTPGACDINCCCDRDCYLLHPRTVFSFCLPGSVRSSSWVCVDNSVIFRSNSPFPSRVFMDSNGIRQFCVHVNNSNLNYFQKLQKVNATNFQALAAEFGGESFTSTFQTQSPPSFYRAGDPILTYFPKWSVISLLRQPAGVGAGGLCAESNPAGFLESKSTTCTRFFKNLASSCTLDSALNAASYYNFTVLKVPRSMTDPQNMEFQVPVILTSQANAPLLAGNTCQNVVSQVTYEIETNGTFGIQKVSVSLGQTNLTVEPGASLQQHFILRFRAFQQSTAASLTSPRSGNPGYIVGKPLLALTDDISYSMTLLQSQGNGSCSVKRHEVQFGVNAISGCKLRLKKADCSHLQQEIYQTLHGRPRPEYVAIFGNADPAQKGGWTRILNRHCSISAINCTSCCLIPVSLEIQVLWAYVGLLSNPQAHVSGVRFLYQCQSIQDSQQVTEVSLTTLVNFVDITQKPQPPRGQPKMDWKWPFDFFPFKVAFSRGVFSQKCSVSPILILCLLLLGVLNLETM
UniProt P29401: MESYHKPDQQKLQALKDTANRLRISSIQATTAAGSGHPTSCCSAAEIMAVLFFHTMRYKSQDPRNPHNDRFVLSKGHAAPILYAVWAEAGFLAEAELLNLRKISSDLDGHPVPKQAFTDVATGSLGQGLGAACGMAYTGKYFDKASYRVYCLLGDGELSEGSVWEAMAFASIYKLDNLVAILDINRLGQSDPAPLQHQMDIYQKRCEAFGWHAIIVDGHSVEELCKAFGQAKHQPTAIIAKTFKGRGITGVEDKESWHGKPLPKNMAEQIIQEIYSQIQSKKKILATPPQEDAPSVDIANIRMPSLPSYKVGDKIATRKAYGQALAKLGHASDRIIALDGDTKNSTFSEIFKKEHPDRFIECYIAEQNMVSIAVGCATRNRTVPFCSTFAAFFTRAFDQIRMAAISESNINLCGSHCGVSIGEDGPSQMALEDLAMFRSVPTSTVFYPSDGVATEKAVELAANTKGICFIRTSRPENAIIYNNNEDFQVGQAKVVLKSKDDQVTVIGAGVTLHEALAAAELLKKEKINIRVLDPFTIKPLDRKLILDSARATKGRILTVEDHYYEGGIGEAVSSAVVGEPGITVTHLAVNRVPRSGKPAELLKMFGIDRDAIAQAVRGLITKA
UniProt Q9NXF1: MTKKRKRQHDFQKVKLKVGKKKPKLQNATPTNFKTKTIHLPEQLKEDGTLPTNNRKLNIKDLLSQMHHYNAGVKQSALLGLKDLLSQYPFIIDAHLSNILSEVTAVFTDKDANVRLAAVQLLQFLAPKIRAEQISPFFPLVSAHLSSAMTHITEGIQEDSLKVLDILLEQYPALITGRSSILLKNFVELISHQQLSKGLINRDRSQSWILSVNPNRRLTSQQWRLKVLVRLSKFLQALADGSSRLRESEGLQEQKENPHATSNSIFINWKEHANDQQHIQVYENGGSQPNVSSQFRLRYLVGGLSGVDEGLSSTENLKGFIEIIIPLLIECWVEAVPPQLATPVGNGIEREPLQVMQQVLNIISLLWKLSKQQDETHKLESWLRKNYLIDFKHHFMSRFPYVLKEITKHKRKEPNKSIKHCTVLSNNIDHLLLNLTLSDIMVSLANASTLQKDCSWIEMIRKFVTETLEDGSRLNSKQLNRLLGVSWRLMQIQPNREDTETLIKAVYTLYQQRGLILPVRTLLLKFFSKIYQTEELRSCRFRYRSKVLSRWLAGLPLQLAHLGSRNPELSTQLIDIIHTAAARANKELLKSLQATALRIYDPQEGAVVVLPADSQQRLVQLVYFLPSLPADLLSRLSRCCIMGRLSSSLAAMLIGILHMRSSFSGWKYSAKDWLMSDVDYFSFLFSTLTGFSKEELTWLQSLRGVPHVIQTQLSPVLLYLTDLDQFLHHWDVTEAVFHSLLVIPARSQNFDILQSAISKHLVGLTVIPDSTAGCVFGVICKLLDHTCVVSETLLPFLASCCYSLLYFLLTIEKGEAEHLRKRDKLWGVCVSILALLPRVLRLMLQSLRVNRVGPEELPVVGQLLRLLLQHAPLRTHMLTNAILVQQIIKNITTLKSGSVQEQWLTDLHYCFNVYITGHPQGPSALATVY
UniProt Q9P0N9: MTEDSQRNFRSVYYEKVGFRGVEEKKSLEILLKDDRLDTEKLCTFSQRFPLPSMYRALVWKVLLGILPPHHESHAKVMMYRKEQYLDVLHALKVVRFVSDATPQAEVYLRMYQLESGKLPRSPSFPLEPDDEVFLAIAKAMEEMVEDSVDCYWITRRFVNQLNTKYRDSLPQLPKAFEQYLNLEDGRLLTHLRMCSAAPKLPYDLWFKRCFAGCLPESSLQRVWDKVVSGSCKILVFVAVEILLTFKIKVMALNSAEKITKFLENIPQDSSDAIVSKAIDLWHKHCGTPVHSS
UniProt Q9Y5J9: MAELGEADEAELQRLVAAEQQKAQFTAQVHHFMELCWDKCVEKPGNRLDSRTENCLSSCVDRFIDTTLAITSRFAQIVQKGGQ
UniProt Q6YHU6: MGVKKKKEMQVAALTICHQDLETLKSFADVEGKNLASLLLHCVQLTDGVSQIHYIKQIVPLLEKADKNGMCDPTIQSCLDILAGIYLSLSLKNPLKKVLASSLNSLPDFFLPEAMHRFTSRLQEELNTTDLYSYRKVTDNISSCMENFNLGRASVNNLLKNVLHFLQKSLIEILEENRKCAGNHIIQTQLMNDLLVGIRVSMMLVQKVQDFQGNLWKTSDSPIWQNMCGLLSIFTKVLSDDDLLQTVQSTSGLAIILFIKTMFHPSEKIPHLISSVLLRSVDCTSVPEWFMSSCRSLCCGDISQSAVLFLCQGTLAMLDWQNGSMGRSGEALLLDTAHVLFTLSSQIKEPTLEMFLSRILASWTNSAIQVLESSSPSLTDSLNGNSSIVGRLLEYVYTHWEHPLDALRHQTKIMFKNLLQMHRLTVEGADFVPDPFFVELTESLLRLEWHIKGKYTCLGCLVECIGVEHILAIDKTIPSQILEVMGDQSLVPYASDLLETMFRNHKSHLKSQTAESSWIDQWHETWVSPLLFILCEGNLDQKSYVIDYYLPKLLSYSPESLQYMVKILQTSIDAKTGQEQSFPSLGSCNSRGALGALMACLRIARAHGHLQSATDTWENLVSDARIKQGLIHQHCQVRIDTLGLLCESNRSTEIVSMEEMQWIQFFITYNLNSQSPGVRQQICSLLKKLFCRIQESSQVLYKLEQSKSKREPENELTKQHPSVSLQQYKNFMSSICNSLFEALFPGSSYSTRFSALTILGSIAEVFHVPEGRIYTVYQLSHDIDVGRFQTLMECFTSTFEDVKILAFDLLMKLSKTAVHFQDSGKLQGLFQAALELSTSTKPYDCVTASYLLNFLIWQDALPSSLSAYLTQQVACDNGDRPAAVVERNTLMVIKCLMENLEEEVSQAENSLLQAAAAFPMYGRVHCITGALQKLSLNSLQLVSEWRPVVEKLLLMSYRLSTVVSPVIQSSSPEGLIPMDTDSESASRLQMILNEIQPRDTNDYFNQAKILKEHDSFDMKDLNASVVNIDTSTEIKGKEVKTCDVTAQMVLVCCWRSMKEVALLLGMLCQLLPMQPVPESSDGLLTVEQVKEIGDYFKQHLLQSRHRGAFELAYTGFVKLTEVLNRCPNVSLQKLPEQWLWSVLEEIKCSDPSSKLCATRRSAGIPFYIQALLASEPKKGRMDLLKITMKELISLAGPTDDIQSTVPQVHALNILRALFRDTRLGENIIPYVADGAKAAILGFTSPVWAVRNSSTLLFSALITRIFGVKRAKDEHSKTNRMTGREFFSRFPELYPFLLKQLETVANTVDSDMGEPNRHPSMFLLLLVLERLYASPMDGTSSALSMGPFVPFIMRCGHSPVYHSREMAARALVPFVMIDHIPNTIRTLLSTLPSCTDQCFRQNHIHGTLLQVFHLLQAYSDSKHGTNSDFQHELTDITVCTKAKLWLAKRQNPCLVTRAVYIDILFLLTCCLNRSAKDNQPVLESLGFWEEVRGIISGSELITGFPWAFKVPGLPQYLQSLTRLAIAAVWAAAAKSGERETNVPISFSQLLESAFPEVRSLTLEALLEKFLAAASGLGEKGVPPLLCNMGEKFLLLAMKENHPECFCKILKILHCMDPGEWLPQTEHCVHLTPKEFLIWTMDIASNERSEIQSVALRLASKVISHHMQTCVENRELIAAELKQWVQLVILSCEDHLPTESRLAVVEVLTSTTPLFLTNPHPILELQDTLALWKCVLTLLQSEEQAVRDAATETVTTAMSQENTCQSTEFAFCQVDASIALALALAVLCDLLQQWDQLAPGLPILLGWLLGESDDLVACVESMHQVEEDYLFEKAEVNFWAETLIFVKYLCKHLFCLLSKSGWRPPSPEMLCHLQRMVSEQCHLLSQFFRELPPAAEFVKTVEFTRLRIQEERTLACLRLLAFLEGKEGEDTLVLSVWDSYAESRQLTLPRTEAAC
UniProt O60220: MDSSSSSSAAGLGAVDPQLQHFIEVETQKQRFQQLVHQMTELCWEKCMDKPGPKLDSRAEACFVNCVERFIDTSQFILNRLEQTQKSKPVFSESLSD
UniProt Q5VWP2: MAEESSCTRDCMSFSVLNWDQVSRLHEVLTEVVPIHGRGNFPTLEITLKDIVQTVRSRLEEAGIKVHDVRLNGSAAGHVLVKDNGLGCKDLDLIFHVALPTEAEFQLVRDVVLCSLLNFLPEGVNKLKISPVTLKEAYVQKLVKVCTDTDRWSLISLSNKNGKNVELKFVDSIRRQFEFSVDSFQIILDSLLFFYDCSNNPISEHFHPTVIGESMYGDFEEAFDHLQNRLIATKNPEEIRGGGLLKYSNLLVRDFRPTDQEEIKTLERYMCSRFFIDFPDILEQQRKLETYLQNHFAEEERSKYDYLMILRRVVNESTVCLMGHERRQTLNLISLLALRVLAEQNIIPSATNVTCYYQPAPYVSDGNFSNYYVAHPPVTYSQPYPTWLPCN
UniProt P20226, whole entry, looked up: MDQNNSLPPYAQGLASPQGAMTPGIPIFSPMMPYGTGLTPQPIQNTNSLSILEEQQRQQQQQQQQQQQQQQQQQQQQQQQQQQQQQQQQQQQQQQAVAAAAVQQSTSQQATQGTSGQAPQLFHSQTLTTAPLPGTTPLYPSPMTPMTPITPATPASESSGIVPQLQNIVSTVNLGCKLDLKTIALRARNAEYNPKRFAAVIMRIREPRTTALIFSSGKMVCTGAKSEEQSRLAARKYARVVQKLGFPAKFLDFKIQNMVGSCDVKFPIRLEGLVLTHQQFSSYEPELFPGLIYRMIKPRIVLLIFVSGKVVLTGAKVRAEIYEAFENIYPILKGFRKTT
UniProt P62072: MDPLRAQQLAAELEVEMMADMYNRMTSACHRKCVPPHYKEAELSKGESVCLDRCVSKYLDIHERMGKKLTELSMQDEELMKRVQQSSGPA
UniProt P07996: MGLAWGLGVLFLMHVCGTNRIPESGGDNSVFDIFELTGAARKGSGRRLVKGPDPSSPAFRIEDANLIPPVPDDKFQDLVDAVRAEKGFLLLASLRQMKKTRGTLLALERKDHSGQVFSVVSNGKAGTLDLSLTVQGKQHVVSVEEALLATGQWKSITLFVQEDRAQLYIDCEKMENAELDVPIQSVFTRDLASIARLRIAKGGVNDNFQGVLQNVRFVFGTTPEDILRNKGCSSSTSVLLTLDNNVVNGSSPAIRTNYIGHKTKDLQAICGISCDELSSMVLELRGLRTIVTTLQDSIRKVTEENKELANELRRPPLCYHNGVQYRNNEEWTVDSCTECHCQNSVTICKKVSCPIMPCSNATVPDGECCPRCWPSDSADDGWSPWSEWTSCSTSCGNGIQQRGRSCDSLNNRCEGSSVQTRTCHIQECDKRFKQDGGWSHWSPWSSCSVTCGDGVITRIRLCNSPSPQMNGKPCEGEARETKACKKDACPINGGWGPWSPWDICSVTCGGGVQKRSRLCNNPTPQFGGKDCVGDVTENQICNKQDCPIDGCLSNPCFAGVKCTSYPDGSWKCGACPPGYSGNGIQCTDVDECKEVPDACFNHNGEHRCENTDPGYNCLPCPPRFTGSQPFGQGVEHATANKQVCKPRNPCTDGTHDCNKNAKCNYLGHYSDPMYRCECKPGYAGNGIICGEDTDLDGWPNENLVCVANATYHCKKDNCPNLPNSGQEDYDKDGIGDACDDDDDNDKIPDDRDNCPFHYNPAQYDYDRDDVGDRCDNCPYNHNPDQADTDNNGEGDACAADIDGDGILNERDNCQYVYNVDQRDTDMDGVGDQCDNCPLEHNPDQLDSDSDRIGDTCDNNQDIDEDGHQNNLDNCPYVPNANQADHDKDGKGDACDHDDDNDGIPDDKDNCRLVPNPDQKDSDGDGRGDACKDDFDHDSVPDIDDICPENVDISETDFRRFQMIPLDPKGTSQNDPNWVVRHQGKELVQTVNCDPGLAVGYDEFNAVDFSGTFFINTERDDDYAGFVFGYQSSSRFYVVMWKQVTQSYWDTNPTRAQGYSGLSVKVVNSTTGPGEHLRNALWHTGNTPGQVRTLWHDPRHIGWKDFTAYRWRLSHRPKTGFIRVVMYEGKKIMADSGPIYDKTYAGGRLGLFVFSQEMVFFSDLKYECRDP

Legend:
Assay in all cases: log2 fold change, soluble protein after heating vs DMSO (PISA); higher = thermal stabilisation; K562 cells, 10 uM, 30 min; active = over 0.2 and 3.5 SD of the protein, either way, in both replicates (recomputed)
[1] = compound: C1=CC=C(C=C1)[C@H](COC2=CC3=C(C=C2)NC(=O)N3)NC(=O)C4=CC=CN(C4=O)CC5=CC(=C(C=C5)F)F
Summary of the method: (§1)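 K562 cells at 2×10^6 cells/mL were given 10 μM compound for 30 min. Aliquots then went through 3 min of heating across 48°C-58°C, were pooled, and were extracted in PBS with 0.5% NP-40 at 4°C, and the supernatant after 21,000xg for 90 min was quantified by TMTpro 16plex LC-MS/MS with channel sums equalised. Thermal stability relative to control samples, from duplicates, is given as log2 fold change.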

[2] = compound: CC1=C(SC2=C1C(=N[C@H](C3=NN=C(N32)C)CC(=O)N)C4=CC=C(C=C4)Cl)C
Summary of the method: as §1

[3] = compound: CC1=C2C(=CC=C1)N=C(N(C2=O)C3=CC=CC=C3C)CN4C=NC5=C(N=CN=C54)N
Summary of the method: as §1

[4] = compound: Cc1sc2c(c1C)C(c1ccc(Cl)cc1)=N[C@@H](CC(=O)OC(C)(C)C)c1nnc(C)n1-2
Summary of the method: as §1

[5] = compound: c1ccc([C@@H]2C[C@H]2NC2CCNCC2)cc1
Summary of the method: as §1

Measured: log2 fold change

TCTN3 (UniProt Q6NUS6)
inactive: [1] 0.045

TBC1D9B (UniProt Q66K14)
inactive: [1] -0.025 | [2] 0.093 | [3] 0.042 | [4] 0.02 | [5] -0.062

TIGAR (UniProt Q9NQ88)
inactive: [1] -0.215

THOP1 (UniProt P52888)
inactive: [1] 0.024 | [2] 0.022 | [3] 0.022 | [4] -0.032 | [5] 0.017

TKT isoform 2 (UniProt P29401)
inactive: [1] -0.014 | [2] 0.002 | [3] -0.015 | [4] -0.032 | [5] 0.011

TEX10 (UniProt Q9NXF1)
inactive: [1] 0.03

TBCB (UniProt Q99426)
inactive: [1] -0.001 | [2] 0.058 | [3] 0.035 | [4] 0.01 | [5] -0.006

TFAP4 (UniProt Q01664)
inactive: [1] -0.055 | [2] -0.077 | [3] 0.03 | [4] 0.004 | [5] 0.041

TBL2 (UniProt Q9Y4P3)
inactive: [1] 0.009 | [2] -0.104 | [3] -0.011 | [4] 0.038 | [5] -0.059

THOC6 (UniProt Q86W42)
inactive: [1] 0.033 | [2] 0.025 | [3] 0.019 | [4] -0.002 | [5] -0.018

TIMMDC1 (UniProt Q9NPL8)
inactive: [1] 0.014 | [2] -0.038 | [3] 0.006 | [4] 0.01 | [5] 0.057

TGFB1 (UniProt P01137)
inactive: [1] 0.012 | [2] 0.032 | [3] 0.02 | [4] -0.013 | [5] 0.019

TIMM21 (UniProt Q9BVV7)
inactive: [1] -0.02 | [2] 0.052 | [3] 0.024 | [4] 0.004 | [5] -0.048

TBC1D7 (UniProt Q9P0N9)
inactive: [1] -0.181

THOC1 (UniProt Q96FV9)
inactive: [1] 0.016 | [2] -0.001 | [3] 0.018 | [4] 0.048 | [5] 0.028

TIMM8B (UniProt Q9Y5J9)
inactive: [1] 0 | [2] -0.058 | [3] -0.031 | [4] -0.112 | [5] 0.018

TDP2 isoform 2 (UniProt O95551)
inactive: [1] -0.089 | [2] 0.039 | [3] 0.092 | [4] 0.014 | [5] -0.118

TFAM (UniProt Q00059)
inactive: [1] 0.062 | [2] -0.046 | [3] -0.018 | [4] 0.108 | [5] 0.009

TCERG1 (UniProt O14776)
inactive: [1] -0.1 | [2] 0.106 | [3] 0.182 | [4] -0.065 | [5] -0.033

TCOF1 isoform 6 (UniProt Q13428)
inactive: [1] 0.209 | [2] 0.151 | [3] -0.251 | [4] 0.271 | [5] 0.029

TK1 (UniProt K7ERV3)
inactive: [1] 0.038 | [2] 0.091 | [3] 0.083 | [4] 0.029 | [5] 0.015

THTPA (UniProt Q9BU02)
inactive: [1] -0.08 | [2] -0.002 | [3] 0.085 | [4] 0.012 | [5] 0.047

TBK1 (UniProt Q9UHD2)
inactive: [1] -0.014 | [2] 0.007 | [3] 0.041 | [4] 0.011 | [5] -0.049

TICAM2 isoform 2 (UniProt Q86XR7)
inactive: [1] -0.002 | [2] 0.048 | [3] -0.099 | [4] -0.038 | [5] -0.009

TGM2 (UniProt P21980)
inactive: [1] -0.013 | [2] 0.014 | [3] 0.002 | [4] -0.082 | [5] 0.016

THRAP3 (UniProt Q9Y2W1)
inactive: [1] 0.09 | [2] 0.193 | [3] -0.072 | [4] 0.046 | [5] 0.028

THADA (UniProt Q6YHU6)
inactive: [1] -0.06 | [2] 0.066 | [3] 0.011 | [4] -0.027 | [5] -0.032

TBPL1 (UniProt P62380)
inactive: [1] -0.007 | [2] 0.121 | [3] 0.059 | [4] -0.049 | [5] -0.07

TIMM8A (UniProt O60220)
inactive: [1] 0.034 | [2] -0.055 | [3] -0.187 | [4] -0.052 | [5] -0.072

THEM4 (UniProt Q5T1C6)
inactive: [1] 0.012 | [2] 0.014 | [3] -0.027 | [4] -0.02 | [5] 0.009

TBL1X (UniProt O60907)
inactive: [1] 0.007 | [2] 0.04 | [3] 0.008 | [4] -0.027 | [5] 0.03

TK2 isoform 6 (UniProt O00142)
inactive: [1] 0.111 | [2] -0.107 | [3] 0.051 | [4] 0.008 | [5] 0.021

TIPIN (UniProt Q9BVW5)
inactive: [1] 0.006 | [2] -0.006 | [3] 0.075 | [4] 0.024 | [5] 0.057

Retrieved one by one from the list above, four records:
TIPIN (UniProt Q9BVW5)
inactive: [1] 0.006 | [2] -0.006 | [3] 0.075 | [4] 0.024 | [5] 0.057

TIMM8A (UniProt O60220)
inactive: [1] 0.034 | [2] -0.055 | [3] -0.187 | [4] -0.052 | [5] -0.072

TBL1X (UniProt O60907)
inactive: [1] 0.007 | [2] 0.04 | [3] 0.008 | [4] -0.027 | [5] 0.03

TK2 isoform 6 (UniProt O00142)
inactive: [1] 0.111 | [2] -0.107 | [3] 0.051 | [4] 0.008 | [5] 0.021

More results

TENT5C (UniProt Q5VWP2)
inactive: [1] 0.017 | [2] 0.25 | [3] 0.122 | [4] 0.116 | [5] -0.35

TBRG4 (UniProt Q969Z0)
inactive: [1] -0.106 | [2] 0.022 | [3] 0.077 | [4] -0.049 | [5] -0.017

TKFC (UniProt Q3LXA3)
inactive: [1] 0.001 | [2] 0.058 | [3] -0.005 | [4] -0.014 | [5] 0.01

TGOLN2 isoform 7 (UniProt O43493)
inactive: [1] 0.042 | [2] 0.052 | [3] 0.015 | [4] 0.007 | [5] 0.047

TK1 (UniProt P04183)
inactive: [1] 0.002 | [2] -0.008 | [3] -0.011 | [4] -0.019 | [5] 0.008

TFRC (UniProt P02786)
inactive: [1] 0.058 | [2] 0.032 | [3] 0.008 | [4] 0.011 | [5] 0.021

TIMM17A (UniProt Q99595)
inactive: [1] 0.019 | [2] -0.021 | [3] -0.003 | [4] -0.002 | [5] 0.058

TIMM22 (UniProt Q9Y584)
inactive: [1] -0.021 | [2] -0.068 | [3] -0.208 | [4] -0.093 | [5] -0.097

TBCD (UniProt Q9BTW9)
inactive: [1] -0.028 | [2] 0.03 | [3] 0.101 | [4] -0.004 | [5] -0.03

TCOF1 isoform 4 (UniProt Q13428)
inactive: [1] 0.016 | [2] 0.006 | [3] 0.018 | [4] 0.033 | [5] 0.042

THUMPD1 (UniProt Q9NXG2)
inactive: [1] 0.009 | [2] -0.003 | [3] 0.03 | [4] -0.052 | [5] 0.024

TBP (UniProt P20226)
inactive: [1] 0.016 | [2] 0.314 | [3] -0.158 | [4] 0.144 | [5] 0.07

TKT, A0A0B4J1R6
inactive: [1] -0.236 | [2] 0.046 | [3] 0.165 | [4] 0.157 | [5] 0.093

TIMM10 (UniProt P62072)
inactive: [1] -0.013 | [2] -0.043 | [3] 0.042 | [4] -0.033 | [5] 0.022

TEX2 isoform 2 (UniProt Q8IWB9)
inactive: [1] -0.026 | [2] 0.002 | [3] 0.055 | [4] -0.105 | [5] 0.018

THBS1 (UniProt P07996)
inactive: [1] -0.161 | [2] -0.048 | [3] 0.09 | [4] -0.01 | [5] 0.011

TBC1D13 (UniProt Q9NVG8)
inactive: [1] -0.013 | [2] 0.035 | [3] 0.069 | [4] -0.033 | [5] -0.008

TFR2 (UniProt Q9UP52)
inactive: [1] 0.01 | [2] 0.018 | [3] 0.004 | [4] 0.007 | [5] 0.026

THUMPD2 (UniProt Q9BTF0)
inactive: [1] -0.024 | [2] -0.014 | [3] 0.047 | [4] 0.017 | [5] 0.06

TBC1D23 (UniProt Q9NUY8)
inactive: [1] -0.039 | [2] 0.068 | [3] 0.034 | [4] -0.003 | [5] -0.037

TGFBI (UniProt Q15582)
inactive: [1] -0.115 | [2] -0.024 | [3] 0.019 | [4] -0.048 | [5] -0.08

TJAP1 (UniProt Q5JTD0)
inactive: [1] 0.031 | [2] 0.12 | [3] 0.083 | [4] -0.046 | [5] 0.004
